Assay [1] addresses T1, Gremlin1 (GREM1) in BZ-CRC-01 colorectal cancer PDX tumor sections (UniProt O60565).
T1 sequence (looked up): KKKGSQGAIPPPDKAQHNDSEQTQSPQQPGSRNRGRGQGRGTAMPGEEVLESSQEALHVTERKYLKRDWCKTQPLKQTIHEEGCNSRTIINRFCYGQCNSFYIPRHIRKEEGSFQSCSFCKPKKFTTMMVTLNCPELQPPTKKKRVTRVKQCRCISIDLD
In words: IHC on FFPE BZ-CRC-01 PDX tumor sections, 20 ug/mL biotinylated antibody, streptavidin-HRP detection.

Assay [2] concerns the target T1, Gremlin1 (GREM1) in BZ-CRC-01 colorectal cancer PDX tumor sections. In words: IHC on FFPE BZ-CRC-01 PDX tumor sections with biotinylated antibody.

Results are given in words; binding and its absence hold for the method and conditions named. Some binding calls cover weakened binding; strength is not graded here.

B1: Hu14E3 HaLa Biotin (biotinylated humanized anti-GREM1 antibody Hu14E3 HaLa) (antibody, V domains shown)
VH: QVQLVQSGSELKKPGASVKVSCKASGYTFTTYGMAWMRQAPGQGLEWMGWINTLSGEPTYADDFKGRFVFSLDTSVSTAYLQISSLKAEDTAVYYCAREPMDYWGQGTMVTVSS
VL: DVVMTQSPLSLPVTLGQPASISCKSSQSLLDSDGKTYLSWLQQRPGQSPRRLIYLVSKLDSGVPDRFSGSGSGTDFTLKISRVEAEDVGVYYCWQGAHFPLTFGQGTKLEIK
Regarding B1, the binding entry in assay [1] and in assay [2] was “binds” each time.

These data come from EP4694930A1.
